Measurements: publication doi:10.1101/2022.02.05.479199
No constants are given. Whether binding was seen depends on the method and setting. Binding seen in cells or lysates may run through a third protein. Some entries that bind do so weakly or less than the wild type. Where a sequence is shown, tags or fusion partners need not be part of it.

Amino acid sequences for entries named in this document (tags omitted). A change or cut given only in a name is not applied to a line headed by its entry.
UniProt P22336: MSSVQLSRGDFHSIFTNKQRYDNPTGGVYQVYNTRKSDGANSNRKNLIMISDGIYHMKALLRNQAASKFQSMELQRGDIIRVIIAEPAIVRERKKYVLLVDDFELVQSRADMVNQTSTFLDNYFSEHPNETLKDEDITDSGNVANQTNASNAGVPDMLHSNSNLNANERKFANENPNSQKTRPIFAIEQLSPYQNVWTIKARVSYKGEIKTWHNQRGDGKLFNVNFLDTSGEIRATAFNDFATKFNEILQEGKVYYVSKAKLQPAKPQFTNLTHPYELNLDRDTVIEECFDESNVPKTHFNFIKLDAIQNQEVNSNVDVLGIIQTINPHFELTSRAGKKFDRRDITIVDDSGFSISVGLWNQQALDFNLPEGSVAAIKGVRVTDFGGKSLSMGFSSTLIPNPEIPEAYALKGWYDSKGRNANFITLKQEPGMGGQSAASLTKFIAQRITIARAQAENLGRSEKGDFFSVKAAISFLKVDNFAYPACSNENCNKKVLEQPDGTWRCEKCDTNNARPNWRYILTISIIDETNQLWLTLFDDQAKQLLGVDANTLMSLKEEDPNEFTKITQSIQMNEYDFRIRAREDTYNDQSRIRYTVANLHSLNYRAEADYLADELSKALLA
UniProt P26754: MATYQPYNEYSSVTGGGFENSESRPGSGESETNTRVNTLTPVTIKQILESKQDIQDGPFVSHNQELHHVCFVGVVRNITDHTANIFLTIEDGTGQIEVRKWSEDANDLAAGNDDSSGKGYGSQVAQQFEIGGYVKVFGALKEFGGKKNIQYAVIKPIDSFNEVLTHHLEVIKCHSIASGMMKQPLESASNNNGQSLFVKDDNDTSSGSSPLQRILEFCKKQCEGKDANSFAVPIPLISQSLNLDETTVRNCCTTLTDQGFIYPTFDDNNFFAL
UniProt P26755: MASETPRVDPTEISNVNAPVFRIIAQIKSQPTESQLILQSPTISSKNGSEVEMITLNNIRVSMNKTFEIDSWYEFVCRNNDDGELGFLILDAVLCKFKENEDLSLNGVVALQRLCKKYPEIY

molecular target: T1, TAP-tagged Rtt105 (S. cerevisiae) (UniProt P40063); assay: co-IP
T1 sequence: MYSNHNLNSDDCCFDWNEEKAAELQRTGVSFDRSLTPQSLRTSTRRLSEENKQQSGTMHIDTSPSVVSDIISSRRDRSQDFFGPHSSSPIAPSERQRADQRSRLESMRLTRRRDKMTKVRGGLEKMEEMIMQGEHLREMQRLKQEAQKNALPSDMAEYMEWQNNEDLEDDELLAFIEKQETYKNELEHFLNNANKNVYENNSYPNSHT

binding, binds:
t33 RPA mutant (S373P in DBD-B) (from UniProt P22336;P26754;P26755) (complex)
RPA with wild type Rfa1 in yeast cells (from UniProt P22336;P26754;P26755) (complex)
zm1 (K494A) mutant of RPA (from UniProt P22336;P26754;P26755) (complex)
